In patent US11759442B2, “Use of short chain fatty acids for the treatment and prevention of diseases and disorders” (Temple University-Of The Commonwealth System of Higher …, priority 2017, dated 2023):
For at least one compound, name, drawing or mass did not settle the structure.

Legend:
[1] = tested on: IL-6; details: cited from earlier work
[2] = tested on: STAT1; details: blocks JAK2 activation; cited from earlier work
[3] = tested on: angiogenesis; details: cited from earlier work
[4] = tested on: COX-2; details: cited from earlier work
[5] = tested on: psoriasis skin lesions

SMILES: CCCC(=O)O [butyrate]
- effect on IL-6 [1]: inhibit IL-6
- effect on nuclear translocation of STAT1 [2]: block
- expression of pro-angiogenesis factors, including HIF-1a and VEGF [3]: reduce expression
- effect on angiogenesis ([3]; in vitro and in vivo): repress angiogenesis
- effect on COX-2 expression and PG production [4]: inhibit
- improvement of severe psoriasis, first regimen ([5]; FIG. 5 fourth patient, psoriasis over about 50% of skin, two 600 mg pills 3 times daily 4 weeks, then one pill 3 times daily several months): significant improvement
- psoriasis after second treatment regimen ([5]; FIG. 5 fourth patient, two 600 mg pills 3 times daily 10 days, then one pill 3 times daily 3 weeks): psoriasis disappeared
- improvement of plaque psoriasis ([5]; FIG. 6 patient, two 600 mg pills 3 times daily 20 days, then one pill 3 times daily 25 days, observed 3-5 months after stopping): Significant improvement
- psoriasis skin lesions when treatment was discontinued ([5]; after discontinuation of oral butyrate): reappeared
- psoriasis skin lesions after treatment ([5]; individuals with psoriasis, butyrate capsules orally for 3-4 weeks): marked improvement or complete resolution of skin lesions
- psoriasis skin lesions when treatments were started again ([5]; oral butyrate restarted): disappeared once more
